In US6455075B1, “Method for control of insects on plants and plant tissue” (priority 1996, dated 2002):

Columns and labels:
cut flower = settings: 500 PPM in cut flower water, two weeks
[1] = 1% solution

In the case of `OO` [hydrogen peroxide], the “clarity of the water” value (cut flower) is reported as “remained clear”, the “condition of the flowers” value (cut flower) is reported as “excellent condition with only slight neck droop observed” and the “residue in the boxes” value [1] is reported as “no residue”.
